We go through 2 substances from publication PMC6971018.

Results are given in words; binding and its absence hold for the method and conditions named. Binding calls can cover weak binding; strength is not graded here.

The target in experiment [1] is T1, CutC choline lyase, full length (Klebsiella pneumoniae) (UniProt A6TB41).
T1 sequence: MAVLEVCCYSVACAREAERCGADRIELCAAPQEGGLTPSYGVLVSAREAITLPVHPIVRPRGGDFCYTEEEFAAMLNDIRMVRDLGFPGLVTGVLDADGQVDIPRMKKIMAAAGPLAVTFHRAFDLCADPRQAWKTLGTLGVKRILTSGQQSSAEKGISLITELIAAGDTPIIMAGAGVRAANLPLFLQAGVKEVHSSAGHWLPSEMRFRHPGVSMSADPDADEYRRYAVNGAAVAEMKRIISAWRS
Nature of the experiment: SEC; proteins co-expressed in E. coli BL21-DE3; cleared lysate pelleted at 50,000g for 3 h, pellet gel-filtered on Superose 6 16/900 in 300 mM NaCl, 20 mM Tris-HCl pH 8.0; fractions 60-120 ml by SDS-PAGE and TEM.

For experiment [2], the target named is T1, CutC choline lyase, full length (Klebsiella pneumoniae). The experiment is described as follows: SEC; purified His6x-tagged core enzymes, alone and together, on the Superose 6 column; both purified.

As to “CutF aldehyde dehydrogenase, co-expressed with shell genes (Klebsiella pneumoniae) (enzyme)”, the binding result in experiment [1] was “binds”.

With “His6x-CutF, purified (Klebsiella pneumoniae) (enzyme)”, in experiment [2], the binding result is given as “binds”.
